# Data reported in patent US20220257721A1, “PHARMACEUTICAL COMPOSITION CONTAINING GLY-THYMOSIN BETA-4 (GLY-TB4) FOR TREATMENT OF DRY EYE” (HUONS CO., LTD., priority 2017, published 2022).
# Part of at least one peptide drawing is inferred or uncertain, most often the ends.
# Test system: goblet cells
# Assay: Efficacy comparison between Gly-Tβ4 and Tβ4: goblet cell density in experimental dry eye
# Assay type: in vivo
# Conditions: comparison Gly-Tβ4 vs WT-Tβ4, concentration not given
compound,measurement,value
"CC[C@H](C)[C@H](NC(=O)[C@H](CCC(=O)O)NC(=O)[C@H](C)NC(=O)[C@H](CCSC)NC(=O)[C@H](CC(=O)O)NC(=O)[C@@H]1CCCN1C(=O)[C@H](CCCCN)NC(=O)[C@H](CC(=O)O)NC(=O)[C@H](CO)NC(C)=O)C(=O)N[C@@H](CCC(=O)O)C(=O)N[C@@H](CCCCN)C(=O)N[C@@H](Cc1ccccc1)C(=O)N[C@@H](CC(=O)O)C(=O)N[C@@H](CCCCN)C(=O)N[C@@H](CO)C(=O)N[C@@H](CCCCN)C(=O)N[C@@H](CC(C)C)C(=O)N[C@@H](CCCCN)C(=O)N[C@@H](CCCCN)C(=O)N[C@H](C(=O)N[C@@H](CCC(=O)O)C(=O)N[C@H](C(=O)N[C@@H](CCC(N)=O)C(=O)N[C@@H](CCC(=O)O)C(=O)N[C@@H](CCCCN)C(=O)N[C@@H](CC(N)=O)C(=O)N1CCC[C@H]1C(=O)N[C@@H](CC(C)C)C(=O)N1CCC[C@H]1C(=O)N[C@@H](CO)C(=O)N[C@@H](CCCCN)C(=O)N[C@@H](CCC(=O)O)C(=O)N[C@H](C(=O)N[C@H](C(=O)N[C@@H](CCC(=O)O)C(=O)N[C@@H](CCC(N)=O)C(=O)N[C@@H](CCC(=O)O)C(=O)N[C@@H](CCCCN)C(=O)N[C@@H](CCC(N)=O)C(=O)N[C@@H](C)C(=O)NCC(=O)N[C@@H](CCC(=O)O)C(=O)N[C@@H](CO)C(=O)O)[C@@H](C)CC)[C@@H](C)O)[C@@H](C)O)[C@@H](C)O [WT-Tβ4, Thymosin β4]",Goblet Cell Density,9.7 ± 0.8
